{"source": "patent US11021457B2", "about": "“Class of isoindolone-imide ring-1,3-dione-2-ene compounds, composition and use thereof” (WIGEN BIOMEDICINE TECHNOLOGY (SHANGHAI) CO., LTD., priority 2017, dated 2021)", "key": {"K562": {"test_system": "K562", "experiment": "Inhibition of tumor cell proliferation, CellTiter-Glo, K562", "type": "cell-based", "details": "compound concentration 50 μM, 72 hours"}, "BxPC-3": {"test_system": "BxPC-3", "experiment": "Inhibition of tumor cell proliferation, CellTiter-Glo, BxPC-3", "type": "cell-based", "details": "compound concentration 50 μM, 72 hours"}, "RPMI-8226": {"test_system": "RPMI-8226", "experiment": "Inhibition of tumor cell proliferation, CellTiter-Glo, RPMI-8226", "type": "cell-based", "details": "compound concentration 50 μM, 72 hours"}, "A549": {"test_system": "A549", "experiment": "Inhibition of tumor cell proliferation, CellTiter-Glo, A549", "type": "cell-based", "details": "compound concentration 50 μM, 72 hours"}, "LC3B": {"molecular_target": "LC3B (Homo sapiens (Human), UniProt Q9GZQ8)", "experiment": "Fluorescence polarization experiment targeting LC3B (GST-LC3B with FITC-labeled peptide)", "details": "GST-LC3B 180 nM, FITC-labeled peptide 18 nM, 25° C."}, "MDA-MB-453": {"test_system": "MDA-MB-453", "experiment": "Inhibition of tumor cell proliferation, CellTiter-Glo, MDA-MB-453", "type": "cell-based", "details": "compound concentration 50 μM, 72 hours"}, "SU-DHL6": {"test_system": "SU-DHL6", "experiment": "Inhibition of tumor cell proliferation, CellTiter-Glo, SU-DHL6", "type": "cell-based", "details": "compound concentration 50 μM, 72 hours"}}, "note": "The match of structure and compound is tentative.", "data": [{"smiles": "O=C1CCC(N2C(=O)c3cccc(NC(=O)COC=C4C(=O)CC(c5ccccc5)CC4=O)c3C2=O)C(=O)N1", "note": "(centres unmarked)", "values": [{"measurement": "Inhibitory activity against proliferation (cell survival rate) K562", "setting": "K562", "result": "+ (60≤survival rate (%)<90)"}, {"measurement": "Inhibitory activity against proliferation (cell survival rate) BxPC-3", "setting": "BxPC-3", "result": "+ (60≤survival rate (%)<90)"}, {"measurement": "Inhibitory activity against proliferation (cell survival rate) RPMI-8226", "setting": "RPMI-8226", "result": "+ (60≤survival rate (%)<90)"}, {"measurement": "Inhibitory activity against proliferation (cell survival rate) A549", "setting": "A549", "result": "+ (60≤survival rate (%)<90)"}, {"measurement": "IC50", "setting": "LC3B", "result": "100 to 1000", "unit": "µM"}, {"measurement": "Inhibitory activity against proliferation (cell survival rate) MDA-MB-453", "setting": "MDA-MB-453", "result": "+++ (survival rate (%)≤30)"}, {"measurement": "Inhibitory activity against proliferation (cell survival rate) SU-DHL6", "setting": "SU-DHL6", "result": "+++ (survival rate (%)≤30)"}]}, {"smiles": "O=C1CCC(N2C(=O)c3cccc(NC(=O)CSC=C4C(=O)CC(c5ccccc5)CC4=O)c3C2=O)C(=O)N1", "note": "(centres unmarked)", "values": [{"measurement": "Inhibitory activity against proliferation (cell survival rate) K562", "setting": "K562", "result": "+++ (survival rate (%)≤30)"}, {"measurement": "Inhibitory activity against proliferation (cell survival rate) BxPC-3", "setting": "BxPC-3", "result": "+ (60≤survival rate (%)<90)"}, {"measurement": "Inhibitory activity against proliferation (cell survival rate) RPMI-8226", "setting": "RPMI-8226", "result": "+++ (survival rate (%)≤30)"}, {"measurement": "Inhibitory activity against proliferation (cell survival rate) A549", "setting": "A549", "result": "+++ (survival rate (%)≤30)"}, {"measurement": "IC50", "setting": "LC3B", "result": "100 to 1000", "unit": "µM"}, {"measurement": "Inhibitory activity against proliferation (cell survival rate) MDA-MB-453", "setting": "MDA-MB-453", "result": "+++ (survival rate (%)≤30)"}, {"measurement": "Inhibitory activity against proliferation (cell survival rate) SU-DHL6", "setting": "SU-DHL6", "result": "+++ (survival rate (%)≤30)"}]}]}
